# Reference: PubChem BioAssay AID540303 (National Center for Advancing Translational Sciences (NCATS), 2011)
# The campaign covered roughly 330,000 compounds. About 1,000 (0.3%) were called active. This list was built around the results that the source calls inconclusive (neither active nor inactive); the mix of calls is not that of the screen. Calls come from the whole dose curve; as a rule, active = well fitted inhibition curve with a large enough effect; inconclusive = small, poorly fitted or top-dose-only effect; inactive = no such curve, though single readings can be large or run the other way; tested in mouse RAW 264.7 cells. A potency beside an inconclusive call is a rough fit, not a confirmed value.
# Assay: qHTS for Inhibitors of Cell Surface uPA Generation; note: nearly all actives have a fitted effect of over 55% in size
# Conditions: cell surface uPA generation assay; series mostly up to 38.3 µM
# Outline: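 RAW 264.7 cells (4000/well) were plated overnight at 37 C and then given compounds in a 1:5 series (up to 38.3 uM final) plus reagent for 24 h. Intracellular ATP was measured by ATP-Lite luminescence and stays elevated when uPA-dependent LF entry is blocked.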
# Potency is the fitted concentration of half-maximal effect.
row,Compound,Potency
1,O=C(NN=C1CCCCCC1)c1c[nH]c2ccccc12,"inconclusive: 6.31 µM [inhibitor, partial curve, poor fit]"
2,O=C(CC1C(=O)NCCN1Cc1cccc(F)c1)NC1CCCCCC1 (centres undefined),inactive
3,Cc1cc(Br)c(NC(=O)c2ccccc2[N+](=O)[O-])cc1C,"inconclusive: 1.26 µM [inhibitor, partial curve]"
4,CC(=O)c1sc(N/N=C/c2cccc(O)c2)nc1C,"inconclusive: 3.55 µM [inhibitor, partial curve, poor fit]"
5,O=C(CCC(=O)N1CCN(c2ccccn2)CC1)c1cccs1,"inconclusive: 14.1 µM [inhibitor, partial curve, poor fit]"
6,COc1ccc(C2=NC(C)(C)Cc3cc(OC)c(OC)cc32)cc1OC,inactive
7,O=C(COc1ccc(Cl)cc1Cl)N/N=C/c1ccc(OC2OC(CO)C(O)C(O)C2O)cc1 (centres undefined),"inconclusive: 5.01 µM [inhibitor, partial curve, poor fit]"
8,Cc1ccc2c(c1)COc1c3ccc(C(=O)N[C@@H](C)CO)cc3nn1-2,active: 4.47 µM
9,CC1CCN(C(=O)c2[nH]cnc2C(=O)NCCCCCNC(=O)OC(C)(C)C)CC1,inactive
10,CC(=O)C1C(c2cccc(F)c2)NC(=O)NC1(O)C(F)(F)F (centres undefined),"inconclusive: 3.55 µM [inhibitor, full curve, poor fit]"
11,COCCCNC(=O)CSc1nc2ccccc2c(=O)n1CCCN1CCCCC1,inactive
12,N#CCSc1ccc2nc(-c3ccccc3)cn2n1,"inconclusive: 10 µM [inhibitor, partial curve]"
13,COc1ccc(C(=O)c2cccc(C(=O)c3ccc(OC)c(C)c3)c2)cc1C,inactive
14,Cc1c(Cl)cccc1Nc1ccccc1C(=O)O,inactive
15,COc1ccc(NC(=O)COc2ccccc2Cc2ccccc2)cc1S(N)(=O)=O,inactive
16,O=C(NC12CC3CC(CC(C3)C1)C2)c1ccc([N+](=O)[O-])o1,"inconclusive: 5.01 µM [inhibitor, partial curve, poor fit]"
17,CCC1CCCCN1S(=O)(=O)c1ccc(C(=O)Nc2nnc(-c3cccs3)o2)cc1 (centres undefined),inactive
18,CCC(C)NC(=O)Cn1c(COc2ccc(Cl)cc2Cl)nc2ccccc21 (centres undefined),inactive
19,Cc1c(CN2CCCC(C(=O)Nc3cccc(-n4cccn4)c3)C2)cnn1C (centres undefined),active: 7.94 µM
20,Cc1ccc(Cl)cc1N1CCN(C(=O)c2cn(C)c(=O)c3c2c2ccccc2n3C)CC1,"inconclusive: 12.6 µM [inhibitor, single point]"
21,c1ccc(-n2nnc(-c3cccnc3)n2)cc1,"inconclusive: 7.94 µM [inhibitor, partial curve, poor fit]"
22,O=C(c1ccc(Cl)cc1)C1CCCN(Cc2cccn2-c2cccnc2)C1 (centres undefined),inactive
23,COc1cc(NC(=O)c2ccccc2Cl)c2ncccc2c1,"inconclusive: 28.2 µM [inhibitor, single point]"

row,Compound,Potency
1,O=C(O)c1ccc(/C=C2\SC(=Nc3ccccc3)N(c3ccccc3)C2=O)cc1,"inconclusive: 10 µM [inhibitor, partial curve, poor fit]"
2,O=[N+]([O-])c1cc(-c2nc3nc4ccccc4nc3n2CCc2ccccc2)cc([N+](=O)[O-])c1,inactive
3,O=C(Oc1cccc(NC(=O)c2ccco2)c1)c1cccc(S(=O)(=O)N2CCCCC2)c1,inactive
4,CCCOc1ccc(C(=O)C(CCC(CNCC)C(=O)c2ccc(OCCC)cc2)CNCC)cc1 (centres undefined),"inconclusive: 11.2 µM [inhibitor, partial curve, poor fit]"
5,COc1ccc(CN(C)C(=O)c2ccccc2OCc2c(C)noc2C)cc1OC,"inconclusive: 12.6 µM [inhibitor, single point]"
6,S=C(NCc1ccc(Cl)cc1)Nc1ccncc1,"inconclusive: 11.2 µM [inhibitor, partial curve, poor fit]"
7,Cc1ccc(/C=N/NC(=S)Nc2cccc(S(=O)(=O)N(C)C)c2)o1,"inconclusive: 7.94 µM [inhibitor, partial curve]"
8,COc1ccc(C(CNC(=O)c2ccccc2SC)N(C)C)cc1 (centres undefined),inactive
9,COc1ccc(-c2nn(C)c(=O)c3ccccc23)cc1NC(=O)Cn1nc(C)c2ccccc2c1=O,"inconclusive: 0.0224 µM [inhibitor, full curve, poor fit]"
10,COC(=O)[C@H](Cc1ccccc1)NC(=O)NC(C)CCc1ccccc1 (some centres undefined),"inconclusive: 1 µM [inhibitor, partial curve, poor fit]"
11,Cc1c(N2C(=O)CSC2=S)c(=O)n(-c2ccccc2)n1C,inactive
12,COc1ccc(C(=O)N(C)CCCC2CCCC2)cc1OC1CCN(C(C)C)CC1,"inconclusive: 14.1 µM [inhibitor, partial curve, poor fit]"
13,COc1ccc(Nc2ncnc3nc[nH]c23)cc1OC,"inconclusive: 31.6 µM [inhibitor, single point]"
14,COc1cc(NC(=O)c2ccccc2F)c(OC)cc1NC(=O)CN1CCCCC1,inactive
15,Nc1nc(N)nc(-c2cc(F)ccc2O)n1,"inconclusive: 11.2 µM [inhibitor, partial curve, poor fit]"
16,CC(C)Nc1ncnc2c1cnn2-c1ccccc1,"inconclusive: 11.2 µM [inhibitor, partial curve, poor fit]"
17,Cc1sc(N)c(C#N)c1C,inactive
18,Cc1cccc(-c2cccc(NC(=O)C3CCCN(C(=O)c4csc(C)n4)C3)c2)c1 (centres undefined),"inconclusive: 12.6 µM [inhibitor, single point]"
19,COc1ccc(O)c(C(=O)c2cnc3c(c2)CN(C)C(=O)N3)c1,"inconclusive: 4.47 µM [inhibitor, partial curve, poor fit]"
20,CC(=O)Nc1cccc(C(=O)/C=C/c2ccc[nH]2)c1,inactive
21,CCOC(=O)CCNCc1ccc(OC)c(OC)c1,inactive
22,CC(C)[C@H](NC(=O)[C@@H]1Cc2ccccc2CN1C(=O)OC(C)(C)C)C(=O)NC1CCCC1,"inconclusive: 12.6 µM [inhibitor, single point]"
23,O=C(Cc1cccc(NC(=O)C2CCCN(C(=O)CCc3ccccc3)C2)c1)Nc1cccc(C(=O)N2CCCC2)c1 (centres undefined),inactive

row,Compound,Potency
1,COc1ccc(CC(=O)OC(C)C(=O)Nc2c(C)n(C)n(-c3ccccc3)c2=O)cc1OC (centres undefined),inactive
2,COc1ccccc1N(C)S(=O)(=O)c1ccc(C(=O)NCc2ccccc2CN2CCCC2)cc1,"inconclusive: 22.4 µM [inhibitor, single point]"
3,CCc1ccccc1NC(=O)Nc1cccn(Cc2ccc(F)cc2)c1=O,"inconclusive: 0.316 µM [inhibitor, full curve, poor fit]"
4,CN(C)C(=O)COC(=O)c1cccc(S(=O)(=O)N2CC3(C)CC2CC(C)(C)C3)c1 (centres undefined),"inconclusive: 5.01 µM [inhibitor, partial curve]"
5,C=C[C@@H]1c2cc(C)ccc2N(S(=O)(=O)c2ccc(C)cc2)[C@H](c2ccc(OC(C)=O)cc2)C1(C#N)C#N,"inconclusive: 5.01 µM [inhibitor, partial curve, poor fit]"
6,COc1cc2oc3ccccc3c(=O)c2cc1OC,"inconclusive: 8.91 µM [inhibitor, partial curve, poor fit]"
7,CCOc1ccc(-c2noc(CCC(=O)O)n2)cc1,"inconclusive: 11.2 µM [inhibitor, partial curve]"
8,CN(CCCC(=O)O)c1ccc(N=Nc2ccc([N+](=O)[O-])cc2)cc1,"inconclusive: 11.2 µM [inhibitor, single point]"
9,COc1ccc(-c2nc(SC)n(C(=O)c3ccco3)n2)cc1,inactive
10,Cc1ccc(N(CC2=NCCN2)c2cccc(O)c2)cc1,"inconclusive: 12.6 µM [inhibitor, single point]"
11,COc1ccc(/C=C/C(O)=C2/C(=O)NC3(C)CC2c2ccccc2O3)c(OC)c1OC (centres undefined),"inconclusive: 7.94 µM [inhibitor, partial curve, poor fit]"
12,Cc1cccc(OCCCC(=O)NNC(=O)c2ccccn2)c1,"inconclusive: 12.6 µM [inhibitor, partial curve, poor fit]"
13,O=C(Nc1nc2cc3c(cc2s1)OCCO3)C1CCCCC1,"inconclusive: 5.62 µM [inhibitor, single point]"
14,CC(=O)c1cccc(NC(=O)c2cc3ccccn3n2)c1,"inconclusive: 7.94 µM [inhibitor, partial curve, poor fit]"
15,CCc1nnc(NC(=O)Cc2ccc(S(=O)(=O)N3CCCCC3)cc2)s1,"inconclusive: 7.94 µM [inhibitor, partial curve, poor fit]"
16,CNC(=O)c1cnn(-c2nc(-c3ccc(OC)cc3)cs2)c1C(F)(F)F,"inconclusive: 10 µM [inhibitor, partial curve, poor fit]"
17,CN(c1ccc(O)cc1)c1nc(-c2cccnc2)cs1,"inconclusive: 12.6 µM [inhibitor, partial curve, poor fit]"
18,Cc1c(C(=O)OCCOC(C)C)[nH]c2c1C(=O)CC(c1ccco1)C2 (centres undefined),"inconclusive: 0.562 µM [inhibitor, full curve, poor fit]"
19,O=C(CSc1nnc(-c2ccco2)c(-c2ccco2)n1)c1ccccc1,inactive
20,O=C(CN1C(=O)c2ccccc2S1(=O)=O)c1ccccc1,inactive
21,C[C@@]12CCC=C[C@H]1[C@H](c1ccoc1)N(Cc1ccccc1)C2=O,"inconclusive: 10 µM [inhibitor, partial curve, poor fit]"
22,c1ccc(CN2CCN(c3nc4ccccc4n4cnnc34)CC2)cc1,inactive
23,COCCCNC(=O)Cc1c(C)c2cc3c(cc2oc1=O)OC(C)(C)CC3,"inconclusive: 12.6 µM [inhibitor, partial curve, poor fit]"

# Exported as tab-separated lines: entries from further up.
row	Compound	Potency
12	Cc1cccc(OCCCC(=O)NNC(=O)c2ccccn2)c1	inconclusive: 12.6 µM [inhibitor, partial curve, poor fit]
13	O=C(Nc1nc2cc3c(cc2s1)OCCO3)C1CCCCC1	inconclusive: 5.62 µM [inhibitor, single point]
14	CC(=O)c1cccc(NC(=O)c2cc3ccccn3n2)c1	inconclusive: 7.94 µM [inhibitor, partial curve, poor fit]
